No constants are given. Whether binding was seen depends on the method and setting. Some results given as binding are weak or reduced against the parent protein; the word gives no strength. Values belong to the binder of their own block, whether it stands above or below them.
Assays:
[1] = biological target: Her2 (ErbB2) extracellular domain (ECD) (human) (UniProt P04626); experiment: phage display selection and ELISA screening, soluble periplasmic scFv
[2] = biological target: Her2 (ErbB2) extracellular domain (ECD) (human) (UniProt P04626); experiment: phage display selection and ELISA screening, scFv on phage

B1: S1R3B1_BMV_1A1 (scFv, V domains shown)
VH: EVQLVQSGAEVKEPGASVKVSCKASGYDFSNYGFSWVRQAPGQGLEWMGWISSYNGYTNYAQRLQGRVTMTTDTSTSTAYMELRSLRSDDTAVYYCARDRGLGNWYFDLWGQGTLVTVSS
VL: QSVLTQPASVSGSPGQSITISCTGTSSDVGGYNYVSWYQQHPGKAPKLMIYEGSKRPSGVSNRFSGSKSGNTASLTISGLQAEDEADYYCSSYTTRSTRVFGGGTKLTVL
binding [1]: binds

B2: S1R3B1_BMV_1G11 (scFv, V domains shown)
VH: QVQLVQSGGGLVQPGGSLRLSCAASGFTFSTYAMSWARQAPGKGLEWVSSISGDGGRILDADSAKGRFTISRDNSKNTLYLQMNGLRVEDTALYYCARADGNYWGRGTMVTVSS
VL: B1 VL
binding [1]: binds

B3: S1R3A1_CS_1B10 (scFv, V domains shown)
VH: EVQLVQSGAEVKKPGASVRVSCKGSGNTFTGHYIHWVRQAPGQGLEWLGWIDPNTGDIQYSENFKGSVTLTRDPSINSVFMDLIRLTSDDTAMYYCAREGAGLANYYYYGLDVWGRGTMVTVSS
VL: QTVVLQEPSFSVSPGGTVTLTCGLNFGSVSTAYYPSWYQQTPGQAPRTLIYGTNIRSSGVPDRFSGSIVGNKAALTITGAQTEDESDYYCALYMGSGMLFGGGTKVTVL
binding [1]: binds

B5: S1R3A1_CS_1B9 (scFv, V domains shown)
VH: KVQLVQSGTEVKKPGESLKISCQGSGYRFSSDWIAWVRQMPGKGLEWMGIVYPGDSDTRYSPSFQGQVTISADKSISTAYLQWSGLKASDTAKYYCARVQQAVGAKGYAMDVWGKGTLVTVSS
VL: QTVVIQEPSFSVSPGGTVTLTCGLSSGSVSTSYYPSWYRQTPGQAPHTLIHNTKIRSSGVPDRFSGSILGNNAALTITGAQADDESDYYCLLYMGSGIYVFGGGTKLTVL
binding [1]: binds

B8: S1R3B1_BMV_1H5 (scFv, V domains shown)
VH: QVQLQESGGGVVQPGGSLRLSCAASGFTFSGYGMHWVRQAPGKGLEWVASVRNDGSNTYYTDSVKDRFTISRDNTKNTLYLQMNSLRAEDTAVYYCAKSRRVMYGTSYYFDYWGRGTLVTVSS
VL: SSELTQDPAVSVALGQTVRITCQGDSLRSYYASWYQQKPGQAPVLVIYGKNNRPSGIPDRFSGSSSGNTASLTITGAQAEDEADYYCNSRDSSGNHVVFGGGTKLTVL
binding [1]: binds

B9: S1R3A1_BMV_1F3 (scFv, V domains shown)
VH: EVQLVESGEGLVKPGGSLRLSCTASGFTFRSYSLNWVRQAPGQGLEWVSSISSTSTYIYYADSVKGRFTISRDDAKNTLYLQMNSLRAEDTAAYYCVRLGSGGGYFPDYWGRGTLVTVSS
VL: B8 VL
binding [1]: binds

Second part, the binder after the results:

binding [2]: binds
B4: S1R3C1_CS_1D3 (scFv, V domains shown)
VH: QVQLQESGPGLVKPSQTLSLTCGISGDSVSSNSAAWNWIRQSPTRGLEWLGRTYYRSSWYHNYAPSMNSRLTIIADTSKNQFSLQLNSVTPEDTAVYYCASGWAFDVWGRGTLVTVSS
VL: QSVLTQPPSASGSPGQSVTISCTGTSSDVGAYDFVSWYQQHPGKAPKLMIYEVNKRPSGVPDRFSGSKSGNTASLTVSGLQAEDEADYYCSSYAGSKNLLFGGGTKLTVL

binding [2]: binds
B6: S1R3B2_BMV_1G2 (scFv, V domains shown)
VH: QVQLVQSGAEVKKPGSSVKVSCKASGYTFTSYGISWVRQAPGQGLEWMGWISAYNGNTNYAQKLQGRVTMTTDTSTSTAYMELRSLRSDDTAVYYCARVPGVSGSYPDYYYMDVWGKGTLVTVSS
VL: DIQMTQSPSTLSASIGDRVTITCRASEGIYHWLAWYQQKPGKAPKLLIYKASSLASGAPSRFSGSGSGTDFTLTISSLQPDDFATYYCQQYSNYPLTFGGGTKLEIK

binding [1]: binds
B7: S1R3B1_BMV_1H9 (scFv, V domains shown)
VH: QVQLQESGAGLVKPSGTLSLTCAVSGGSISSGNWWSWVRQPPGKGLEWIGEISHSGSTNYNPSLKSRVTISVDKSKNQFSLNLSSVTAADTAVYYCARVRGTVGDTRGPDYWGQGTLVTVSS
VL: B8 VL

— patent US20090304590A1
